Publication PMC11383612

The chains behind the UniProt entries cited, without tags or fusion partners.
UniProt Q3TKT4: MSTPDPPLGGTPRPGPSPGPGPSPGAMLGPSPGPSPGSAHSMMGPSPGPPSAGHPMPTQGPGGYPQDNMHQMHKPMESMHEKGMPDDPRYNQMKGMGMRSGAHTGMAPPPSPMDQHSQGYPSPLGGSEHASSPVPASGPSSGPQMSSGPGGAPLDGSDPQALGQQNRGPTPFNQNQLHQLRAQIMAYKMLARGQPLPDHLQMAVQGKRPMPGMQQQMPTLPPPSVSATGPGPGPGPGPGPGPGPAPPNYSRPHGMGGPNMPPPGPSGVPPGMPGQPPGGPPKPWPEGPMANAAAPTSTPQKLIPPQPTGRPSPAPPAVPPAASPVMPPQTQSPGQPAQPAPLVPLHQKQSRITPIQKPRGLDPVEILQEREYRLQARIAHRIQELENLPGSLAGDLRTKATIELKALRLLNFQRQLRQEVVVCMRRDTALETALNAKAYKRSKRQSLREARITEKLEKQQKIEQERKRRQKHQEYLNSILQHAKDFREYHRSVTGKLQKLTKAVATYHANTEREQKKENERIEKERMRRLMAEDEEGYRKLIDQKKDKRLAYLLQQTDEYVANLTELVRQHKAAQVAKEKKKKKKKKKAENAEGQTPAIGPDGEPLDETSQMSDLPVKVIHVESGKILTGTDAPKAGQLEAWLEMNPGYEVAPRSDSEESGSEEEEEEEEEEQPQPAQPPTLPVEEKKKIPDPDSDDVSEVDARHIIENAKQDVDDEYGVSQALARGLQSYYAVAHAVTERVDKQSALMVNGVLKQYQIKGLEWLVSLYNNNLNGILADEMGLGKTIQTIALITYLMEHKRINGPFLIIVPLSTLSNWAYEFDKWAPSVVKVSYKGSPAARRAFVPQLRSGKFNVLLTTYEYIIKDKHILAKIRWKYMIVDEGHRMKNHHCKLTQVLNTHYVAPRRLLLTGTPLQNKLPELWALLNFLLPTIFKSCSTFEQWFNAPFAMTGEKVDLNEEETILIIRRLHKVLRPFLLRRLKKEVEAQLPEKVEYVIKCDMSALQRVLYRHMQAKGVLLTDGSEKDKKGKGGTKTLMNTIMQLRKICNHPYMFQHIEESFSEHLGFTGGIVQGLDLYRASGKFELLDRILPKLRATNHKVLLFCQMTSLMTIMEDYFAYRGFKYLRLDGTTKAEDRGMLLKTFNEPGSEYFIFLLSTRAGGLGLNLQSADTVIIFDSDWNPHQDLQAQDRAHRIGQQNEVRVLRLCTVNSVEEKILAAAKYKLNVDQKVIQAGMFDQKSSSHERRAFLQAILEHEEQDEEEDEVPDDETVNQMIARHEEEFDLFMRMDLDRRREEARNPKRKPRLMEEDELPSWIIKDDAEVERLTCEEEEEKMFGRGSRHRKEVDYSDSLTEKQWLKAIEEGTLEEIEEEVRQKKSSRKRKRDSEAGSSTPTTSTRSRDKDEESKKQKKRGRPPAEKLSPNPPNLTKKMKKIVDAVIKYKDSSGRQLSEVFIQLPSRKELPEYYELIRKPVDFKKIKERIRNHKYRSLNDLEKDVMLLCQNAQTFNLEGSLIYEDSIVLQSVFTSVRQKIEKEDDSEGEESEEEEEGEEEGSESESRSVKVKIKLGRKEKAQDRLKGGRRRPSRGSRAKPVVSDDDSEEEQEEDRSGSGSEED

How the values were obtained:
[1] = target: BRG1 (also known as SMARCA4) (mouse (endogenous in OT-I CD8+ T cells)) (UniProt Q3TKT4); experiment: affinity purification with mass spectrometry; immunoprecipitation with a BRG1-specific antibody from lysates of naive OT-I CD8+ T cells; gel bands analysed by MS
[2] = target: BRG1 (also known as SMARCA4) (mouse (endogenous in OT-I CD8+ T cells)) (UniProt Q3TKT4); experiment: affinity purification with mass spectrometry

B1: PHF10 (protein, UniProt Q9D8M7 1-497)
chain: MTAAGPGAAPSPGRCDSDPASPGAQSPKDDNEDNSNDGTHPCKRRRMGSGDSSRSCETSSQDLSFSYYPAENLIEYKWPPDETGEYYMLQEQVSEYLGVTSFKRKYPDLERRDLSHKEKLYLRELNVITETQCTLGLTALRSDEVIDLMIKEYPAKHAEYSVILQEKERQRITDHYKEYSQMQQQSTQKVEASKVPEYIKKAAKKAAEFNSNLNRERMEERRAYFDLQTHVIQVPQGKYKVLPTDRTKVSSYPVALIPGQFQEYYKRYSPDELRYLPLNTALYEPPLDPELPALDSDGDSDDGEDGGGDEKRKNKGTSDSSSGNVSEGDSPPDSQEDTFHGRQKSKDKMATPRKDGSKRSVLSKSAPGYKPKVIPNALCGICLKGKESNKKGKAESLIHCSQCDNSGHPSCLDMTMELVSMIKTYPWQCMECKTCIICGQPHHEEEMMFCDVCDRGYHTFCVGLGAIPSGRWICDCCQRAPPTPRKVGRRGKNSKEG
[1]
  binding: no binding (only in naive CD8+ T cells)
[2]
  binding: binds

No constants are given. Whether binding was seen depends on the method and setting. In cells and extracts the contact can be indirect. Here binding means that the protein was enriched with, or labelled near, the bait; the list need not be complete. For some assays here: A no says only that the protein was not detected with the bait.
